This passage reports binding results from paper PMC10899302.

Chains of the proteins cited; added tags and fusions are not shown.
UniProt Q9UHX1: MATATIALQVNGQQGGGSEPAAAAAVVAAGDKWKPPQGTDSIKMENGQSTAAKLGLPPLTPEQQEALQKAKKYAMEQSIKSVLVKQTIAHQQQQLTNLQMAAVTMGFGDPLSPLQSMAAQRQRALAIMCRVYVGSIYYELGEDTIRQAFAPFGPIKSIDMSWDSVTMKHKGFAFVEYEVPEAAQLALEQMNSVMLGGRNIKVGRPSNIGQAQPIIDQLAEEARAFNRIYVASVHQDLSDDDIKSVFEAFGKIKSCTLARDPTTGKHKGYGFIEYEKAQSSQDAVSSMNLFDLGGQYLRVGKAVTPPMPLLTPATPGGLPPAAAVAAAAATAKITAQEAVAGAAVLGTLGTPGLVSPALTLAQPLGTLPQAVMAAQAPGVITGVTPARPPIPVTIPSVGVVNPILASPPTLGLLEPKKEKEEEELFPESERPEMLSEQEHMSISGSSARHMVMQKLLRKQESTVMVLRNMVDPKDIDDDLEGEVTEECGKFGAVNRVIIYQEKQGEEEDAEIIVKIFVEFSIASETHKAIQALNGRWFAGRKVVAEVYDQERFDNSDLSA
UniProt P11940: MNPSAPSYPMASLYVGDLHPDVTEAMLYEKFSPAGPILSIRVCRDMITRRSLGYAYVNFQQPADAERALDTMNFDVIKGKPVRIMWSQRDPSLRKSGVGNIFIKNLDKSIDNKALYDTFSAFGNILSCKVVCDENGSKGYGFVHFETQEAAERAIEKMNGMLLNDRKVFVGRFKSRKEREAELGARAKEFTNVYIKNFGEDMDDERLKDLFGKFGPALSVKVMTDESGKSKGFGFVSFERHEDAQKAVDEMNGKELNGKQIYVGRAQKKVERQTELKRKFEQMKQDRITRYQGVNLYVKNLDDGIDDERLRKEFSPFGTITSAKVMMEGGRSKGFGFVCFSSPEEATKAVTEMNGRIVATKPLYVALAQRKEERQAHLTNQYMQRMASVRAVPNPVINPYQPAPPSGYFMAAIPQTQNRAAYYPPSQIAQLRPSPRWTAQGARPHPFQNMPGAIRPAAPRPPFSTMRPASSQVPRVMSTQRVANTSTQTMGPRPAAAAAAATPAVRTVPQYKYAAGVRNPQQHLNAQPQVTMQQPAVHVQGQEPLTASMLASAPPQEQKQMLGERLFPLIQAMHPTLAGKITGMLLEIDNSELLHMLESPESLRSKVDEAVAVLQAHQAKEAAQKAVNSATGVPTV

These are yes or no findings as the source states them, for the method shown. Binding seen in cells or lysates may run through a third protein. Some entries that bind do so weakly or less than the wild type.

This experiment has as its target Poly(U) binding splicing factor 60 (PUF60), Flag-tagged (UniProt Q9UHX1). Kind of experiment: co-IP; FLAG antibody (IgG as control) on protein A/G beads, incubated with total protein extraction of OVCAR8 and ES-2 cells transfected with PUF60-Flag plasmid, overnight at 4 °C; washed 3 times with extraction buffer; western blotting. On the technique in general: Immunoblotting shows a protein as a band on a membrane.

As for “poly(A)-binding protein cytoplasmic 1 (PABPC1) (from UniProt P11940 1-636)”, the binding entry is “binds”.
